Results: paper PMC7819943, “Rice protein-binding microarrays: a tool to detect cis-acting elements near promoter regions in rice”
Some of the results follow.

The chains behind the UniProt entries cited, without tags or fusion partners.
UniProt Q0JBA9, entry or part of it: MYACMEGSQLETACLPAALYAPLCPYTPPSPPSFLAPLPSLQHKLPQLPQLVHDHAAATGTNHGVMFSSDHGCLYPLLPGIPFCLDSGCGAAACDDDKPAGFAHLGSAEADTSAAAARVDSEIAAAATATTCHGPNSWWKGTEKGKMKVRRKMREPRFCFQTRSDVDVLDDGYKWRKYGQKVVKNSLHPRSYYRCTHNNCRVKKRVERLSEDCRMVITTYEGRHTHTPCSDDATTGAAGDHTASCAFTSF

What follows are sequences tested against OsWRKY34 (Oryza sativa, UniProt Q0JBA9 1-250) (assay: protein-binding microarray (RPBM); PBS, 2% BSA, 51.3 ng/ul salmon testes DNA, 50 uM zinc acetate, 200 nM TF, 25 C, 1 h; high values mean tight binding). Conditions: protein: recombinant; tags: N-terminal polyhistidine and DsRed monomer fusion (pET32a); label: CyDye5-dUTP incorporated in the synthesized complementary strand; 3' TTTTT single-stranded linker to array surface; dsDNA, one strand shown.
Outline: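 The binding signal is fluorescence intensity per feature, in arbitrary units, read on an Axon 4000B scanner. Polyhistidine- and DsRed-tagged transcription factors (N-terminal fusions) from E. coli BL21-CodonPlus were purified on Ni–NTA and applied at 200 nM for 1 h at 25 °C to a double-stranded, BSA-blocked custom Agilent array in buffer with 50 µM zinc acetate.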
With “ATCATGCCTCAAATCATCGAATTGCTCTACAAATTTCATACGGAGTCACCTAGTGCAG” the binding signal was 10300 fluorescence intensity (a.u.). For “ACCCTCTTGACCTGCCCGGTTTCTCTCGAACACACCAAAACGGAGTCACCTAGTGCAG”, the binding signal was 9390 fluorescence intensity (a.u.). For “GGGGTTGGGTTGGGTACTTGGGTTCGGGTGACTCAAGTAGCGGAGTCACCTAGTGCAG”, the binding signal was 13200 fluorescence intensity (a.u.). For “TAATTTTGAAGCCTGGTCCAGTCCACGCCACCAACGGACGCGGAGTCACCTAGTGCAG”, the binding signal was 8440 fluorescence intensity (a.u.). “AATATCTAACACTACTCCACACTGTCCACAATTACTGCGACGGAGTCACCTAGTGCAG” was tested, and the binding signal was 9250 fluorescence intensity (a.u.). In the case of “CCCTAAATATTTGACGCCGTTGACTTTTTTAAATATGTTTCGGAGTCACCTAGTGCAG”, the binding signal is reported as 27300 fluorescence intensity (a.u.). For “CGCACATCCATCCACGTCATCGATCCGCGCCGCGTGCCTTCGGAGTCACCTAGTGCAG”, the binding signal was 9880 fluorescence intensity (a.u.). In the case of “TCCATCTAATATTCTTGAGGCCACCAATATATGCTTTTTCCGGAGTCACCTAGTGCAG”, the binding signal is reported as 8730 fluorescence intensity (a.u.). “TCCACCATTTACTTTTCCAATCTATCTCCATTACTCAACCCGGAGTCACCTAGTGCAG” was tested, and the binding signal was 10100 fluorescence intensity (a.u.). With “GGGATGGTGTTTGGGTTAGTGGCAAGTGGGGATAAGGGAACGGAGTCACCTAGTGCAG” the binding signal was 8990 fluorescence intensity (a.u.). “CTTCACCCCGCCCACGCGGACGCATCCGATCCCGCCGCATCGGAGTCACCTAGTGCAG” was tested, and the binding signal was 11100 fluorescence intensity (a.u.). For “AATAAGGCGAATAGTCAAATATGTGAGAAAAAGTCAACGGCGGAGTCACCTAGTGCAG”, the binding signal was 9270 fluorescence intensity (a.u.). For “AACTCACGTCGTTTTACATATATTCTCCATATTCTTTTTTCGGAGTCACCTAGTGCAG”, the binding signal was 8990 fluorescence intensity (a.u.). “CCCATATTATTCTTACGTTTTTTCTATTCTTATGCTTTGACGGAGTCACCTAGTGCAG” was tested, and the binding signal was 10300 fluorescence intensity (a.u.). In the case of “CGGGTGAAAAATTCCTTGTCTCTTGTCTCATTTACTTGTTCGGAGTCACCTAGTGCAG”, the binding signal is reported as 12600 fluorescence intensity (a.u.). “TTGACCATGTAAAGTCAACTTCATTTCTGTGTGTGTTTTGCGGAGTCACCTAGTGCAG” was tested, and the binding signal was 8480 fluorescence intensity (a.u.). “TGGCTCCGCCACGTCCTCGTCGCCTGGAACTCGCTCGTCTCGGAGTCACCTAGTGCAG” was tested, and the binding signal was 8680 fluorescence intensity (a.u.). In the case of “CTTGTTTCTTCTTCTTCTTCTAGATTTGATTTTCTTTTTTCGGAGTCACCTAGTGCAG”, the binding signal is reported as 10000 fluorescence intensity (a.u.). “CAGACTTTTCAGCTTCGGTTTCCCTTGTTTCTGATCTTTCCGGAGTCACCTAGTGCAG” was tested, and the binding signal was 8440 fluorescence intensity (a.u.). With “CCAGTAGCTACACCACCCGGCCTTGTTTGGCAAAGCTCATCGGAGTCACCTAGTGCAG” the binding signal was 8420 fluorescence intensity (a.u.). For “ATATTTGCACTTTTATACTAAACCACCATTAAATTTTGATCGGAGTCACCTAGTGCAG”, the binding signal was 9100 fluorescence intensity (a.u.). “CGTCCTCACCCGCACGCAATCACCGCGAAAACGCCCAAAACGGAGTCACCTAGTGCAG” was tested, and the binding signal was 9680 fluorescence intensity (a.u.). In the case of “GCCGCTTCGTCCGCGACCGCCTCCGTCTCCGCGACCGGCCCGGAGTCACCTAGTGCAG”, the binding signal is reported as 8200 fluorescence intensity (a.u.). In the case of “CCCATTTCGCACTCTATATATACACCATCCATTTTCAGTCCGGAGTCACCTAGTGCAG”, the binding signal is reported as 11300 fluorescence intensity (a.u.). With “GGGCCAGTTTGCTCGTACAACTCACACACACTCATATCCACGGAGTCACCTAGTGCAG” the binding signal was 8280 fluorescence intensity (a.u.). In the case of “TATTCCTGATTTTAGCACCATCGTCAGTTTTTTTTCATCTCGGAGTCACCTAGTGCAG”, the binding signal is reported as 12100 fluorescence intensity (a.u.). In the case of “CGCCTATTCCGCCACGTACCGACGCCCGTTCCCGCAGATGCGGAGTCACCTAGTGCAG”, the binding signal is reported as 9510 fluorescence intensity (a.u.). With “TTCACGTCGTTCCCGTTCAGCCCCGACGCCAGCAGCAGCCCGGAGTCACCTAGTGCAG” the binding signal was 8500 fluorescence intensity (a.u.). In the case of “AACTATTATGTAGAGGTTTGGGGCTTTGACTTTTGATGTTCGGAGTCACCTAGTGCAG”, the binding signal is reported as 13300 fluorescence intensity (a.u.). “GACCAACCTTCCAGATCTTCCTTTCTACCACTCACCTAGGCGGAGTCACCTAGTGCAG” was tested, and the binding signal was 8920 fluorescence intensity (a.u.). “ACACAGCCTAACTAACAAAACCGTTGACTCACCAATCGCCCGGAGTCACCTAGTGCAG” was tested, and the binding signal was 12200 fluorescence intensity (a.u.). For “GGAGTATTAGCTAGTCATCATTTGTTCTCTTCACCGACCGCGGAGTCACCTAGTGCAG”, the binding signal was 8270 fluorescence intensity (a.u.). With “AGCCAGCTATTATTACCAATTCTTTGCAATTTGGGCTAGTCGGAGTCACCTAGTGCAG” the binding signal was 9030 fluorescence intensity (a.u.). With “CACAGCGTTAGCTTCGTCCACCCAATTTGACTTTCCAATGCGGAGTCACCTAGTGCAG” the binding signal was 9790 fluorescence intensity (a.u.). With “ATTTCCCTTCCCTTTCTTTCTTTCTTTCTTTCTTTCTTTCCGGAGTCACCTAGTGCAG” the binding signal was 10500 fluorescence intensity (a.u.). For “AATTTCTTTAATTATCCATAGATAGCTTTCCTTGTTTCTTCGGAGTCACCTAGTGCAG”, the binding signal was 9280 fluorescence intensity (a.u.). In the case of “GTTGTCTTCTCCTATATAAGCTAAGATACTCTTCCACTCTCGGAGTCACCTAGTGCAG”, the binding signal is reported as 8300 fluorescence intensity (a.u.). For “GCCCCACCGCCACCGCCACCGCCCACGCCGCCGCTCCATGCGGAGTCACCTAGTGCAG”, the binding signal was 9770 fluorescence intensity (a.u.). For “GATCAGGGAGCTCGTTGACTTCACAGTGGATTGCCACACCCGGAGTCACCTAGTGCAG”, the binding signal was 8690 fluorescence intensity (a.u.). In the case of “TCCAGGCTCGCCCTCGTTCCTCTCTCTCTCTCCTCGCAAACGGAGTCACCTAGTGCAG”, the binding signal is reported as 10700 fluorescence intensity (a.u.). In the case of “ACGGCGAGAGGTGGCTCGGTTTCGGTTTGACCGTTTTGGGCGGAGTCACCTAGTGCAG”, the binding signal is reported as 11000 fluorescence intensity (a.u.). “ACGGGGATGACTCCGATGACTCTCCTGGCCTCGCCGCCTCCGGAGTCACCTAGTGCAG” was tested, and the binding signal was 8120 fluorescence intensity (a.u.). “GACAGCTTCTTCCCGCGCCGGCGCCTCCGGCCGCTTCTCCCGGAGTCACCTAGTGCAG” was tested, and the binding signal was 9070 fluorescence intensity (a.u.). “CTGGTTGGTTCTCCCTTAGTTGATGCCAAACCATAACTTCCGGAGTCACCTAGTGCAG” was tested, and the binding signal was 9620 fluorescence intensity (a.u.). “TTAAAAGGGAATTTATGTTATTTGTTCGGTTGTGGGTTTTCGGAGTCACCTAGTGCAG” was tested, and the binding signal was 8380 fluorescence intensity (a.u.). For “AGGTGTCATCTAGTTTTGCTTGTATAGCTAACCCCACACTCGGAGTCACCTAGTGCAG”, the binding signal was 8680 fluorescence intensity (a.u.). “TATTAGTTAGTATGGATTCACCATTTATTGACCATTTTGCCGGAGTCACCTAGTGCAG” was tested, and the binding signal was 8690 fluorescence intensity (a.u.). For “TAAATTTGATTCCATTTCCGTTGCCTGTTCATTTCGTCGACGGAGTCACCTAGTGCAG”, the binding signal was 8300 fluorescence intensity (a.u.). With “AACTCCTAGGCTGTGTTTGTATAACGATGCGTTTTTTACACGGAGTCACCTAGTGCAG” the binding signal was 8350 fluorescence intensity (a.u.). For “CTCTCTCTCTCTCTCTCTCTATATCTATCTCCGTTGCTTCCGGAGTCACCTAGTGCAG”, the binding signal was 12700 fluorescence intensity (a.u.). With “GAGAGCGAGGGGTTGGTGGTGGTGTAGGGTTTTAGTTTACCGGAGTCACCTAGTGCAG” the binding signal was 9600 fluorescence intensity (a.u.). For “GCTCATACTTGTTGTTCACGGACCTGTTTAAGCTACACTACGGAGTCACCTAGTGCAG”, the binding signal was 11100 fluorescence intensity (a.u.). “TATATGGTGGTATCGGCCGCTTTGGTTTCTCTAGTTCACTCGGAGTCACCTAGTGCAG” was tested, and the binding signal was 12000 fluorescence intensity (a.u.). For “CTGTAAAGTTTTATTTATATCGTGCTTTAACTTTTGATTGCGGAGTCACCTAGTGCAG”, the binding signal was 8410 fluorescence intensity (a.u.).
